The values below come from patent US20200291121A1.

This assay concerns the target rabbit IL-5Rα, recombinant extracellular domain (rabbit). Nature of the assay: BLI (Octet RED 384), antibody immobilised on AR2G sensors, antigen in solution. In general terms: Biolayer interferometry detects binding as a change in optical thickness at a sensor tip.

Results are given in words; binding and its absence hold for the method and conditions named.

B1: BCD133-03-021 (antibody, human IgG1, kappa, V domains shown)
VH: QVQLQESGGGLVQPGGSLRLSCAASGFTFSNYAMSWVRQAPGKGLEWVSAINSGGKSTNYADSVKGRFTISRDNAKNTLYLQMNSLRAEDTAVYYCADYATNYGVPYFGSWGQGTMVTVSS
VL: QSVLTQPPSVSAAPGQRVTISCSGSRSNIGSGYDVHWYQQLPGTAPKLLIYDDNNRPSGVPDRFSGSKSGTSASLAITGLQAEDEADYYCQSYDSSLSGHVVFGGGTKLTVLR
In the case of B1, the binding result is “no binding”.
